Source: the supplement of paper PMC11006884
Only a part is listed here, and it is no random draw.

Protein sequences, listed by entry. Tags and fused reporters are not part of them. Lines headed by an entry give the natural chain unless they say otherwise; changes in a name come on top.
UniProt Q16134: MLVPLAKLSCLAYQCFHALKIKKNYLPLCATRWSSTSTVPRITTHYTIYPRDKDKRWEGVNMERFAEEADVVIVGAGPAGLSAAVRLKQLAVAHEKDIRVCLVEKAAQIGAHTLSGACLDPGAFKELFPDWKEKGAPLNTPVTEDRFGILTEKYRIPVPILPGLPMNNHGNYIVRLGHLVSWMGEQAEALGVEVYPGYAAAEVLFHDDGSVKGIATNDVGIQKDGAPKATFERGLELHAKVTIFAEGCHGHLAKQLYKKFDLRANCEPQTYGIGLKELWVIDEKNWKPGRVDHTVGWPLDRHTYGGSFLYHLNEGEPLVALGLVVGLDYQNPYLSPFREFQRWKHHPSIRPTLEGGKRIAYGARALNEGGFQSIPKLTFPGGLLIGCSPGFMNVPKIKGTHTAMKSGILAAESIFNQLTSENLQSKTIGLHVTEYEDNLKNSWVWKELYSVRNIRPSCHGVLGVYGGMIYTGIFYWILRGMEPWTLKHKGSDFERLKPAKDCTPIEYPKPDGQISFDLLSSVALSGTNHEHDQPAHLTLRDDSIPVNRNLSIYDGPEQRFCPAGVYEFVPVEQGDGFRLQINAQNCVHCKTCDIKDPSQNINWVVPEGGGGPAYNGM
UniProt Q15527: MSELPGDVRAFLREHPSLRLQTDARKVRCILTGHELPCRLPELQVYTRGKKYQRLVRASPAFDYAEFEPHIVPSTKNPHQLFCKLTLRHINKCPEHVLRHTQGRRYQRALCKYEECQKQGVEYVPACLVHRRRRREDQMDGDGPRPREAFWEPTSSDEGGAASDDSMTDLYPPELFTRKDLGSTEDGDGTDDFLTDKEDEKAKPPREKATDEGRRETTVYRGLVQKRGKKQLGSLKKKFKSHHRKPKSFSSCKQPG
UniProt Q15392: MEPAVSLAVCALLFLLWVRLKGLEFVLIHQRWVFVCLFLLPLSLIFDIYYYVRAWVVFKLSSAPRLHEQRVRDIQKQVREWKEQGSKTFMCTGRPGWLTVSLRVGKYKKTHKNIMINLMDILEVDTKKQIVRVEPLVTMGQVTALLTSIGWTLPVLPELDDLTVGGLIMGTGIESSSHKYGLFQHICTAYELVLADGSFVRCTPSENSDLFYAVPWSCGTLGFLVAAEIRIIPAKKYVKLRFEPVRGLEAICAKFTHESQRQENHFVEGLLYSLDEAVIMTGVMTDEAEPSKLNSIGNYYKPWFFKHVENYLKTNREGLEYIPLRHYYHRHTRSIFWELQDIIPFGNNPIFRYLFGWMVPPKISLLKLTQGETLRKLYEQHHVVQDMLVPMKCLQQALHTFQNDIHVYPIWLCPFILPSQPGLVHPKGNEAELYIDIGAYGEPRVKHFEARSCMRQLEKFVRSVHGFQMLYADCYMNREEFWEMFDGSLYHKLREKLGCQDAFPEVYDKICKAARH
UniProt Q15102: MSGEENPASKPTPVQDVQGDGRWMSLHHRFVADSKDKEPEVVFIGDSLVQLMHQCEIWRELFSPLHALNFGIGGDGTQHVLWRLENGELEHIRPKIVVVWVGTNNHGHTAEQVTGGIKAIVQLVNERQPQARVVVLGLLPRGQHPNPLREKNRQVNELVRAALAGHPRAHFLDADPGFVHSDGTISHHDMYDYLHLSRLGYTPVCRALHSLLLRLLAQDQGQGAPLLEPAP
UniProt Q15149: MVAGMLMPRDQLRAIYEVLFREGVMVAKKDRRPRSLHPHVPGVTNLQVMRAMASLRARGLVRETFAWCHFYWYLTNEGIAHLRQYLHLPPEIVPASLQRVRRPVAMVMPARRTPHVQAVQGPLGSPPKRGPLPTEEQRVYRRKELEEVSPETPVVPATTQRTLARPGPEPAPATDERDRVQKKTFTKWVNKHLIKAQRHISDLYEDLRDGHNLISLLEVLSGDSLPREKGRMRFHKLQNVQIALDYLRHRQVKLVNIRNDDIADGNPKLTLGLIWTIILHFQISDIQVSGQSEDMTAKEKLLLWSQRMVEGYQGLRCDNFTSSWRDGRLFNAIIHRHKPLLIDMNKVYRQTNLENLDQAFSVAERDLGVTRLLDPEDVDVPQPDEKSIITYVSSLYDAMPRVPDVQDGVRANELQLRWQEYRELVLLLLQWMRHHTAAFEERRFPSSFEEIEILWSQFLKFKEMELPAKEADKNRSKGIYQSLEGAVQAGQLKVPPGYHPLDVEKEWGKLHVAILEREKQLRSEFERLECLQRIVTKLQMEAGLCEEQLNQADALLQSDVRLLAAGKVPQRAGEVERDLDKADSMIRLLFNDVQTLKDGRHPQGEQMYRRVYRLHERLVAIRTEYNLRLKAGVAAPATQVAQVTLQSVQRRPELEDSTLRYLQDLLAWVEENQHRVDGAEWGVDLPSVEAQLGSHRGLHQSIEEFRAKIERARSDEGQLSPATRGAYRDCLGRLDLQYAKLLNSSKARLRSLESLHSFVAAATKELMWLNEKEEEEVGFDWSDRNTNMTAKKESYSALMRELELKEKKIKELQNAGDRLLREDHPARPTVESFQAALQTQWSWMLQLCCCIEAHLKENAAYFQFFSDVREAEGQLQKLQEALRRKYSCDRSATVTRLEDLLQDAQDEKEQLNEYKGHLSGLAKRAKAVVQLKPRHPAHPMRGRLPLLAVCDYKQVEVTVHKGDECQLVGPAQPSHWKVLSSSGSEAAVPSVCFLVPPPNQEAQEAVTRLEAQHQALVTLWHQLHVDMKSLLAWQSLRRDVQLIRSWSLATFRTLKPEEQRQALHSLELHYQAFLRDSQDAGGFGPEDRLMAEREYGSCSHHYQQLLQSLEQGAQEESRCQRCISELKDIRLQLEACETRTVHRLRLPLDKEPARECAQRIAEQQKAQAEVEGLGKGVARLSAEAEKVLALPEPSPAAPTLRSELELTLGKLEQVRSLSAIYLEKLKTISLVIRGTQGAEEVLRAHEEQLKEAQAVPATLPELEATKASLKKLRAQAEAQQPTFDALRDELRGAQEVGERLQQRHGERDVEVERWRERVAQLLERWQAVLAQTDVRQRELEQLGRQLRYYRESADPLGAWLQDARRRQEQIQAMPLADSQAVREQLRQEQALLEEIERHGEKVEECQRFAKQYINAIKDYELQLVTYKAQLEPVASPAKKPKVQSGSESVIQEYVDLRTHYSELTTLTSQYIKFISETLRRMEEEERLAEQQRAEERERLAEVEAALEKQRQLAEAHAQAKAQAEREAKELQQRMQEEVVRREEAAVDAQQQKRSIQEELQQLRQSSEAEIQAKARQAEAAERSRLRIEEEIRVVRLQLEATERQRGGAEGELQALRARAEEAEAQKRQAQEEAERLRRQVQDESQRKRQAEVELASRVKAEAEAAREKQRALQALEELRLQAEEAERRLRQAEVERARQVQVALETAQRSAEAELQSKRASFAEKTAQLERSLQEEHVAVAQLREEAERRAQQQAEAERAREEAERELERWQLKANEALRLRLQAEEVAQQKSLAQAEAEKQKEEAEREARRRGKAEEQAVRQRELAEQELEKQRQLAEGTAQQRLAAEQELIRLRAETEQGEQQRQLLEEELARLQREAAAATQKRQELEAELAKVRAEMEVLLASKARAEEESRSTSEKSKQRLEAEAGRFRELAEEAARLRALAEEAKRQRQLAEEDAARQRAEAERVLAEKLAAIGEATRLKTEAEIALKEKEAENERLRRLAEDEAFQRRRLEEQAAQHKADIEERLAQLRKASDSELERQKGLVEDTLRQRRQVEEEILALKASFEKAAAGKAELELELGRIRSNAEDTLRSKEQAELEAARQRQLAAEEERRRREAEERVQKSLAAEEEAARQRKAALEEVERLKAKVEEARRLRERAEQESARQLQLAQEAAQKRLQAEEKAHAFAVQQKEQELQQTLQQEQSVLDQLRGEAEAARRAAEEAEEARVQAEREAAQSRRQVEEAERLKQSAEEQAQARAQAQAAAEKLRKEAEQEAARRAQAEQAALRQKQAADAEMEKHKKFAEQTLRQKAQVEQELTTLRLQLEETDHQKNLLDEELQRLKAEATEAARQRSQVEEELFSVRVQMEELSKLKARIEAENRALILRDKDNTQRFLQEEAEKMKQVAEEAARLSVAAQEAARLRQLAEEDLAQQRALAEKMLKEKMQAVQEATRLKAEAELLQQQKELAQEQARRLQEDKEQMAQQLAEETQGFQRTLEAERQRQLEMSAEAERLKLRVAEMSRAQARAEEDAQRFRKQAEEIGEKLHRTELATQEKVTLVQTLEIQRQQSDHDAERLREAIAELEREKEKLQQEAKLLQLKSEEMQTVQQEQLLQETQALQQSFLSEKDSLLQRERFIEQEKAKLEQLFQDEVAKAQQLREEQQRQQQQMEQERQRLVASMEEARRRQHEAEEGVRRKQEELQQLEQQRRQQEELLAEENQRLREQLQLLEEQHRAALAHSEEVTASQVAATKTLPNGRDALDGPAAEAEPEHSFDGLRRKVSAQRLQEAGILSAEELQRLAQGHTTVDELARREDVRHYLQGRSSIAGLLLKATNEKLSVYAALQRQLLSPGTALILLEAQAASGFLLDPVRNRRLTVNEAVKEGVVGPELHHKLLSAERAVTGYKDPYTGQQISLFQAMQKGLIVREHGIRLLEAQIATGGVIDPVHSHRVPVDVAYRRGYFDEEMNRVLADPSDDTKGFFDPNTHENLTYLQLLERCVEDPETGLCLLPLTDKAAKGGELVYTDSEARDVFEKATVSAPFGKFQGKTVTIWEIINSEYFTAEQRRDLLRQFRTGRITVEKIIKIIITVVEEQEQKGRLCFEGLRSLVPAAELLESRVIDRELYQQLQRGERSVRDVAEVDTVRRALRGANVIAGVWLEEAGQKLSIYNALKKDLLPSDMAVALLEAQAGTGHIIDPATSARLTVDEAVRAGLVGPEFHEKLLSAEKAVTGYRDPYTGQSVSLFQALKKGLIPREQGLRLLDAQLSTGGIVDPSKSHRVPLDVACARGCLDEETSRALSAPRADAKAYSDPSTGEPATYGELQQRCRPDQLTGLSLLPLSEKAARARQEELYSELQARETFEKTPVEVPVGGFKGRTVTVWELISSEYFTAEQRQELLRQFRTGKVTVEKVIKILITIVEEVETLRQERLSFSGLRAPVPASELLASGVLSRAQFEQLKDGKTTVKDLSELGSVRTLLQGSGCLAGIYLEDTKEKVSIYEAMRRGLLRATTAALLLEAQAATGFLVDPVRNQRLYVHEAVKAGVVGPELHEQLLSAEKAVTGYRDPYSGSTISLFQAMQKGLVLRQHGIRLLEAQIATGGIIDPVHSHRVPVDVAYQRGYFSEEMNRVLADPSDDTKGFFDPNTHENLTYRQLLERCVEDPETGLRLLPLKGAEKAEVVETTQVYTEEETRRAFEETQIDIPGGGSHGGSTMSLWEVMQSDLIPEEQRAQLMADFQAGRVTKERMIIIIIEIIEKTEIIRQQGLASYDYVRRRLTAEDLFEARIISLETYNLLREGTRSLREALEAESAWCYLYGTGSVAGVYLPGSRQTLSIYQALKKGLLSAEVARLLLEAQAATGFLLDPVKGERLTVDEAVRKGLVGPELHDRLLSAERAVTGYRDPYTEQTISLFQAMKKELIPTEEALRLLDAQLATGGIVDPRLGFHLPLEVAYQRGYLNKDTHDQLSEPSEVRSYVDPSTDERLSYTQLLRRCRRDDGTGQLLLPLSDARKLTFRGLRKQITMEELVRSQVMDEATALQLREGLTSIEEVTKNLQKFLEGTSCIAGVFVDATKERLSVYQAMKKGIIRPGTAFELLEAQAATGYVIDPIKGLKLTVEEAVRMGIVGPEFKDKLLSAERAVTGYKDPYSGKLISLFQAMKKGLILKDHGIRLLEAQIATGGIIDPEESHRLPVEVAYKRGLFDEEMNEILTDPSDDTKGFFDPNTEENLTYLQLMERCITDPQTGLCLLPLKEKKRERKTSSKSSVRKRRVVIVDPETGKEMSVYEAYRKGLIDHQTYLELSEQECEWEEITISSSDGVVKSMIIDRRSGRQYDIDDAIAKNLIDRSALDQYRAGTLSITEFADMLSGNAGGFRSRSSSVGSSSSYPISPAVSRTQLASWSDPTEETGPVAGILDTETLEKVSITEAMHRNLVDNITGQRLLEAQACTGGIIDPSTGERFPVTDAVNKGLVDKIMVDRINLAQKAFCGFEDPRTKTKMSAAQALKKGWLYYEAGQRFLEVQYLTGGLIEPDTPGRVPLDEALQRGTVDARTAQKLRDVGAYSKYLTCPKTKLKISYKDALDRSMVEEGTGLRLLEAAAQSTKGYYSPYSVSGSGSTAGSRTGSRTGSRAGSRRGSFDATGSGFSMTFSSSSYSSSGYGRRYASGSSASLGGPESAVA
UniProt Q2TAA2: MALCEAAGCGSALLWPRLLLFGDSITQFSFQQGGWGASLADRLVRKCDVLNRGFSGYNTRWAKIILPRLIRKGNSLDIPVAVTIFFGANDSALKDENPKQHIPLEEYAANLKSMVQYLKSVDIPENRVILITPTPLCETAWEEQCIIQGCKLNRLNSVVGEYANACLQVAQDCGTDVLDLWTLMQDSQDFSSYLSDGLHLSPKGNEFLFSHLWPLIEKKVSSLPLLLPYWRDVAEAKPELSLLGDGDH

What follows are targets tested with COC(=O)C#Cc1ccccc1 [methyl 3-phenylpropiolate] (assay: log2 ratio of iodoacetamide-alkyne labeling of the cysteine site, DMSO over compound (competition); higher = stronger covalent engagement of the cysteine by the compound, active = 1 or more). Settings: 500 µM; treatment time 1 h; system: HEK293T cell lysate.
Outline: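 The log2 competition ratio per cysteine is defined as mean reporter intensity in control channels over mean reporter intensity in compound channels. Lysate from HEK293T cells (2 mg/mL) received electrophile (500 µM) or vehicle for 1 h at ambient temperature, followed by iodoacetamide alkyne for 1 h. Samples were clicked to sCIP-TMT reagents, pooled, trypsin-digested overnight at 37 °C, streptavidin-enriched, acid-eluted and run on Orbitrap Eclipse LC-MS/MS with FAIMS, with quantification in FragPipe. Three replicates with duplicate channels were used, and any cysteine quantified in only one replicate was excluded.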

Row | Target | log2 ratio of iodoacetamide-alkyne labeling
1 | ERCC6L C825 (UniProt Q2NKX8) | inactive: 0.442
2 | SLC39A14 C118 (UniProt Q15043) | inactive: 0.815
3 | LLGL1 C1059 (UniProt Q15334) | inactive: 0.241
4 | MTERF2 C288 (UniProt Q49AM1) | inactive: -0.33
5 | SF3B3 C1179 (UniProt Q15393) | inactive: -0.0873
6 | CNN3 C173 (UniProt Q15417) | active: 1.01
7 | UniProt Q15397_C185 | inactive: 0.0935
8 | EXOSC7 C85 (UniProt Q15024) | inactive: -0.0747
9 | NCAPD2 C816 (UniProt Q15021) | inactive: 0.11
10 | PCBP2 C109 (UniProt Q15366) | inactive: 0.537
11 | ETFDH C118 (UniProt Q16134) | inactive: 0.00175
12 | SURF2 C111 (UniProt Q15527) | inactive: 0.0646
13 | PDS5A C242 (UniProt Q29RF7) | inactive: 0.194
14 | DHCR24 C91 (UniProt Q15392) | inactive: 0.502
15 | ATG2A C1870 (UniProt Q2TAZ0) | inactive: 0.179
16 | KIF14 C442 (UniProt Q15058) | inactive: 0.0677
17 | UniProt Q16513_C131 | inactive: 0.89
18 | MED1 C443 (UniProt Q15648) | inactive: 0.958
19 | KIF14 C47 (UniProt Q15058) | inactive: 0.247

Row | Target | log2 ratio of iodoacetamide-alkyne labeling
20 | EFTUD2 C166 (UniProt Q15029) | inactive: 0.158
21 | PDK2 C45 (UniProt Q15119) | inactive: 0.457
22 | PDCD4 C350 (UniProt Q53EL6) | inactive: 0.261
23 | PAFAH1B3 C55 (UniProt Q15102) | inactive: 0.0597
24 | UniProt Q1ED39_C78 | inactive: 0.247
25 | MAP7D1 C361 (UniProt Q3KQU3) | active: 1.65
26 | UniProt Q15149_C3295 | inactive: 0.679
27 | UniProt Q15475_C130 | inactive: 0.571
28 | IAH1 C9 (UniProt Q2TAA2) | active: 2.43
29 | EEA1 C1299 (UniProt Q15075) | inactive: 0.315
30 | ANKRD39 C173 (UniProt Q53RE8) | inactive: 0.34
31 | SHB C392 (UniProt Q15464) | inactive: 0.407
32 | UniProt Q567V2_C198 | inactive: 0.342
33 | GEN1 C668 (UniProt Q17RS7) | inactive: 0.0186
34 | SURF2 C127 (UniProt Q15527) | inactive: 0.293
35 | SETDB1 C1226 (UniProt Q15047) | inactive: 0.0374
36 | TYSND1 C77 (UniProt Q2T9J0) | inactive: 0.164
37 | UniProt Q2M1P5_C667 | inactive: 0.291

In another format: entries from further up.

| Row | Target | log2 ratio of iodoacetamide-alkyne labeling |
| --- | --- | --- |
| 22 | PDCD4 C350 (UniProt Q53EL6) | inactive: 0.261 |
| 23 | PAFAH1B3 C55 (UniProt Q15102) | inactive: 0.0597 |
